No constants are given. Whether binding was seen depends on the method and setting. Some results given as binding are weak or reduced against the parent protein; the word gives no strength.

Binding data for one molecule are collected here from publication PMC7618999.

Assay [1] has as its target Drosophila melanogaster CTP synthase (dmCTPS) (Drosophila melanogaster) (UniProt Q9VUL1). Briefly: cryo-electron tomography; CTP-state: 50 uM purified dmCTPS with 2 mM CTP and 10 mM magnesium ions, room temperature 30 min, mixed with an equal volume of 10 nm gold particles, vitrified; filaments, bundles and networks seen in tomograms; both purified.
For assay [2] the target is unchanged. The assay is described as follows: cryo-electron tomography; DON-state: 50 uM purified dmCTPS with 60 uM DON, 2 mM ATP, 2 mM UTP, 2 mM GTP and 10 mM magnesium ions, room temperature 30 min, mixed with an equal volume of 10 nm gold particles, vitrified; filaments, bundles and networks seen in tomograms; both purified.

B1: Drosophila melanogaster CTP synthase (dmCTPS) (enzyme, UniProt Q9VUL1 1-627)
chain: MKYILVTGGVISGVGKGVIASSFGTLLKSCGLDVTSIKIDPYINIDAGTFSPYEHGEVYVLDDGAEVDLDLGNYERFLDVTLHRDNNITTGKIYKLVIEKERTGEYLGKTVQVVPHITDAIQEWVERVAQTPVQGSSKPQVCIVELGGTIGDIEGMPFVEAFRQFQFRVKRENFCLAHVSLVPLPKATGEPKTKPTQSSVRELRGCGLSPDLIVCRSEKPIGLEVKEKISNFCHVGPDQVICIHDLNSIYHVPLLMEQNGVIEYLNERLQLNIDMSKRTKCLQQWRDLARRTETVRREVCIAVVGKYTKFTDSYASVVKALQHAALAVNRKLELVFIESCLLEEETLHSEPSKYHKEWQKLCDSHGILVPGGFGSRGMEGKIRACQWARENQKPLLGICLGLQAAVIEFARNKLGLKDANTTEIDPNTANALVIDMPEHHTGQLGGTMRLGKRITVFSDGPSVIRQLYGNPKSVQERHRHRYEVNPKYVHLLEEQGMRFVGTDVDKTRMEIIELSGHPYFVATQYHPEYLSRPLKPSPPFLGLILASVDRLNQYIQRGCRLSPRQLSDASSDEEDSVVGLAGATKSLSSLKIPITPTNGISKSCNGSISTSDSEGACGGVDPTNGHK
B1: the binding result in assay [1] and in assay [2] was “binds” each time.
